# Laboratory results reported in the supplement of paper PMC8728848.
# The list shows a part of the results.
# B1: Epa20 (Candida glabrata) (protein)
# chain: MGSSHHHHHHSSGLVPRGSHMASSNIPNNYPLGCSNKYSGHLPGLKMELYSYNYVNPRHPDPQNPGKLDQLYDPNLLGTYECFDSSYKDINYPRVGYKSKTLIGRSDGVSGILNFNFVPPWGCMPQKGQLPPAYNFKSNITLSNFTMILFGYFKPKISGNHIFSLHGDDLIYLNFGAGNAFDCCRQESSADNFGNYQAFSLWGINWEKKTLTVYLDMNTYYPIRIFYNNRDYQAIFNFSFKTEFDSSPVIDFQDYFFFLRDIDGGCPGEV
# What was measured:
# Assay in all cases: glycan array binding signal (z-score within array); higher = stronger binding
# Conditions in all cases: glycan notation: IUPAC condensed, linker removed
# [1] = target: Gal(b1-3)GlcNAc(b1-6)GalNAc
# Summary of the method: (§1)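 Glycan array data came from 3228 arrays in the Consortium for Functional Glycomics database, and only arrays with an available protein sequence were kept. Glycan names were put into IUPAC-condensed notation, and columns mapping to the same glycan were averaged. The binding signal is a within-array Z-score, averaged across arrays of one protein sequence run at different concentrations or buffers and across linkers. A negative Z-score can be read as non-binding.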
# [2] = target: Gal(b1-3)GlcNAc(b1-6)[Gal(b1-3)]GalNAc
# Summary of the method: as §1
# Gal(b1-3)GlcNAc6S = target: Gal(b1-3)GlcNAc6S
# Summary of the method: as §1
# [3] = target: Gal(b1-3)[Fuc(a1-4)]GlcNAc
# Summary of the method: as §1
# [4] = target: Gal(b1-3)[Fuc(a1-4)]GlcNAc(b1-2)Man
# Summary of the method: as §1
# [5] = target: Gal(b1-3)[Fuc(a1-4)]GlcNAc(b1-2)Man(a1-3)[Gal(b1-3)[Fuc(a1-4)]GlcNAc(b1-2)Man(a1-6)]Man(b1-4)GlcNAc(b1-4)[Fuc(a1-6)]GlcNAc
# Summary of the method: as §1
# [6] = target: Gal(b1-3)[Fuc(a1-4)]GlcNAc(b1-3)Gal(b1-3)[Fuc(a1-4)]GlcNAc
# Summary of the method: as §1
# [7] = target: Gal(b1-3)[Fuc(a1-4)]GlcNAc(b1-3)Gal(b1-4)[Fuc(a1-3)]GlcNAc
# Summary of the method: as §1
# [8] = target: Gal(b1-3)[Fuc(a1-4)]GlcNAc(b1-6)GalNAc
# Summary of the method: as §1
# [9] = target: Gal(b1-3)[GlcNAc(b1-6)]GalNAc
# Summary of the method: as §1
# [10] = target: Gal(b1-3)[Neu5Ac(a2-6)]GalNAc
# Summary of the method: as §1
# [11] = target: Gal(b1-3)[Neu5Ac(a2-6)]GlcNAc(b1-4)Gal(b1-4)Glc
# Summary of the method: as §1
# [12] = target: Gal(b1-3)[Neu5Ac(b2-6)]GalNAc
# Summary of the method: as §1
# Gal(b1-4)Gal = target: Gal(b1-4)Gal
# Summary of the method: as §1
# [13] = target: Gal(b1-4)GalNAc(a1-3)[Fuc(a1-2)]Gal(b1-4)GlcNAc
# Summary of the method: as §1
# [14] = target: Gal(b1-4)GalNAc(b1-3)[Fuc(a1-2)]Gal(b1-4)GlcNAc
# Summary of the method: as §1
# Gal(b1-4)Glc = target: Gal(b1-4)Glc
# Summary of the method: as §1
# Gal(b1-4)Glc6S = target: Gal(b1-4)Glc6S
# Summary of the method: as §1
# Gal(b1-4)GlcNAc = target: Gal(b1-4)GlcNAc
# Summary of the method: as §1
# [15] = target: Gal(b1-4)GlcNAc(a1-6)Gal(b1-4)GlcNAc
# Summary of the method: as §1
# Gal(b1-4)GlcNAc(b1-2)Man = target: Gal(b1-4)GlcNAc(b1-2)Man
# Summary of the method: as §1
# [16] = target: Gal(b1-4)GlcNAc(b1-2)Man(a1-3)Man(b1-4)GlcNAc(b1-4)GlcNAc
# Summary of the method: as §1
# [17] = target: Gal(b1-4)GlcNAc(b1-2)Man(a1-3)[Gal(b1-4)GlcNAc(b1-2)Man(a1-6)]Man(b1-4)GlcNAc(b1-4)GlcNAc
# Summary of the method: as §1
# [18] = target: Gal(b1-4)GlcNAc(b1-2)Man(a1-3)[Gal(b1-4)GlcNAc(b1-2)Man(a1-6)]Man(b1-4)GlcNAc(b1-4)[Fuc(a1-6)]GlcNAc
# Summary of the method: as §1
# [19] = target: Gal(b1-4)GlcNAc(b1-2)Man(a1-3)[Gal(b1-4)GlcNAc(b1-2)Man(a1-6)][Gal(b1-4)GlcNAc(b1-4)]Man(b1-4)GlcNAc(b1-4)[Fuc(a1-6)]GlcNAc
# Summary of the method: as §1
# [20] = target: Gal(b1-4)GlcNAc(b1-2)Man(a1-3)[Gal(b1-4)GlcNAc(b1-2)Man(a1-6)][GlcNAc(b1-4)]Man(b1-4)GlcNAc(b1-4)[Fuc(a1-6)]GlcNAc
# Summary of the method: as §1
# [21] = target: Gal(b1-4)GlcNAc(b1-2)Man(a1-3)[GlcNAc(b1-2)Man(a1-6)]Man(b1-4)GlcNAc(b1-4)GlcNAc
# Summary of the method: as §1
# [22] = target: Gal(b1-4)GlcNAc(b1-2)Man(a1-3)[GlcNAc(b1-4)][Gal(b1-4)GlcNAc(b1-2)Man(a1-6)]Man(b1-4)GlcNAc(b1-4)GlcNAc
# Summary of the method: as §1
# [23] = target: Gal(b1-4)GlcNAc(b1-2)Man(a1-3)[Man(a1-6)]Man(b1-4)GlcNAc(b1-4)GlcNAc
# Summary of the method: as §1
# [24] = target: Gal(b1-4)GlcNAc(b1-2)Man(a1-6)Man(b1-4)GlcNAc(b1-4)GlcNAc
# Summary of the method: as §1
# [25] = target: Gal(b1-4)GlcNAc(b1-2)Man(a1-6)[GlcNAc(b1-2)Man(a1-3)]Man(b1-4)GlcNAc(b1-4)GlcNAc
# Summary of the method: as §1
# [26] = target: Gal(b1-4)GlcNAc(b1-2)Man(a1-6)[Man(a1-3)]Man(b1-4)GlcNAc(b1-4)GlcNAc
# Summary of the method: as §1
# [27] = target: Gal(b1-4)GlcNAc(b1-2)[Gal(b1-4)GlcNAc(b1-4)]Man(a1-3)[Gal(b1-4)GlcNAc(b1-2)Man(a1-6)]Man(b1-4)GlcNAc(b1-4)GlcNAc
# Summary of the method: as §1
# [28] = target: Gal(b1-4)GlcNAc(b1-2)[Gal(b1-4)GlcNAc(b1-4)]Man(a1-3)[Gal(b1-4)GlcNAc(b1-2)[Gal(b1-4)GlcNAc(b1-6)]Man(a1-6)]Man(b1-4)GlcNAc(b1-4)GlcNAc
# Summary of the method: as §1
# [29] = target: Gal(b1-4)GlcNAc(b1-2)[Gal(b1-4)GlcNAc(b1-4)]Man(a1-3)[GlcNAc(b1-4)][Gal(b1-4)GlcNAc(b1-2)Man(a1-6)]Man(b1-4)GlcNAc(b1-4)GlcNAc
# Summary of the method: as §1
# [30] = target: Gal(b1-4)GlcNAc(b1-2)[Gal(b1-4)GlcNAc(b1-4)]Man(a1-3)[GlcNAc(b1-4)][Gal(b1-4)GlcNAc(b1-2)[Gal(b1-4)GlcNAc(b1-6)]Man(a1-6)]Man(b1-4)GlcNAc(b1-4)GlcNAc
# Summary of the method: as §1
# [31] = target: Gal(b1-4)GlcNAc(b1-2)[Gal(b1-4)GlcNAc(b1-6)]Man(a1-6)[Gal(b1-4)GlcNAc(b1-2)Man(a1-3)]Man(b1-4)GlcNAc(b1-4)GlcNAc
# Summary of the method: as §1
# [32] = target: Gal(b1-4)GlcNAc(b1-2)[Gal(b1-4)GlcNAc(b1-6)]Man(a1-6)[Gal(b1-4)GlcNAc(b1-2)Man(a1-3)]Man(b1-4)GlcNAc(b1-4)[Fuc(a1-6)]GlcNAc
# Summary of the method: as §1
# [33] = target: Gal(b1-4)GlcNAc(b1-2)[Gal(b1-4)GlcNAc(b1-6)]Man(a1-6)[GlcNAc(b1-4)][Gal(b1-4)GlcNAc(b1-2)Man(a1-3)]Man(b1-4)GlcNAc(b1-4)GlcNAc
# Summary of the method: as §1
# [34] = target: Gal(b1-4)GlcNAc(b1-2)[Gal(b1-4)GlcNAc(b1-6)]Man(a1-6)[GlcNAc(b1-4)][Gal(b1-4)GlcNAc(b1-2)[Gal(b1-4)GlcNAc(b1-4)]Man(a1-3)]Man(b1-4)GlcNAc(b1-4)[Fuc(a1-6)]GlcNAc
# Summary of the method: as §1
# [35] = target: Gal(b1-4)GlcNAc(b1-3)Gal(b1-3)GalNAc
# Summary of the method: as §1
# [36] = target: Gal(b1-4)GlcNAc(b1-3)Gal(b1-3)GlcNAc
# Summary of the method: as §1
# [37] = target: Gal(b1-4)GlcNAc(b1-3)Gal(b1-4)Glc
# Summary of the method: as §1
# [38] = target: Gal(b1-4)GlcNAc(b1-3)Gal(b1-4)GlcNAc
# Summary of the method: as §1
# [39] = target: Gal(b1-4)GlcNAc(b1-3)Gal(b1-4)GlcNAc(b1-2)Man(a1-3)[Gal(b1-4)GlcNAc(b1-3)Gal(b1-4)GlcNAc(b1-2)Man(a1-6)]Man(b1-4)GlcNAc(b1-4)GlcNAc
# Summary of the method: as §1
binder,measurement,setting,value
B1,glycan array binding signal (z-score),[1],-0.413
same,glycan array binding signal (z-score),[2],-0.353
same,glycan array binding signal (z-score),Gal(b1-3)GlcNAc6S,-0.347
same,glycan array binding signal (z-score),[3],-0.718
same,glycan array binding signal (z-score),[4],-0.036
same,glycan array binding signal (z-score),[5],0.061
same,glycan array binding signal (z-score),[6],-0.28
same,glycan array binding signal (z-score),[7],-0.763
same,glycan array binding signal (z-score),[8],0.811
same,glycan array binding signal (z-score),[9],-0.421
same,glycan array binding signal (z-score),[10],-0.924
same,glycan array binding signal (z-score),[11],0.047
same,glycan array binding signal (z-score),[12],-0.415
same,glycan array binding signal (z-score),Gal(b1-4)Gal,-0.488
same,glycan array binding signal (z-score),[13],-0.784
same,glycan array binding signal (z-score),[14],-0.549
same,glycan array binding signal (z-score),Gal(b1-4)Glc,-0.35
same,glycan array binding signal (z-score),Gal(b1-4)Glc6S,0.122
same,glycan array binding signal (z-score),Gal(b1-4)GlcNAc,-0.415
same,glycan array binding signal (z-score),[15],-0.249
same,glycan array binding signal (z-score),Gal(b1-4)GlcNAc(b1-2)Man,-0.114
same,glycan array binding signal (z-score),[16],-0.254
same,glycan array binding signal (z-score),[17],-0.534
same,glycan array binding signal (z-score),[18],0.292
same,glycan array binding signal (z-score),[19],-0.489
same,glycan array binding signal (z-score),[20],-0.546
same,glycan array binding signal (z-score),[21],-0.442
same,glycan array binding signal (z-score),[22],-0.56
same,glycan array binding signal (z-score),[23],0.168
same,glycan array binding signal (z-score),[24],-0.205
same,glycan array binding signal (z-score),[25],0.14
same,glycan array binding signal (z-score),[26],-0.359
same,glycan array binding signal (z-score),[27],-0.453
same,glycan array binding signal (z-score),[28],-0.504
same,glycan array binding signal (z-score),[29],0.325
same,glycan array binding signal (z-score),[30],-0.404
same,glycan array binding signal (z-score),[31],-0.662
same,glycan array binding signal (z-score),[32],-0.459
same,glycan array binding signal (z-score),[33],-0.48
same,glycan array binding signal (z-score),[34],-0.764
same,glycan array binding signal (z-score),[35],-0.313
same,glycan array binding signal (z-score),[36],-0.218
same,glycan array binding signal (z-score),[37],0.444
same,glycan array binding signal (z-score),[38],-0.384
same,glycan array binding signal (z-score),[39],2.48

# Part of the list above, set out differently.
binder | measurement | setting | value
B1 | glycan array binding signal (z-score) | [7] | -0.763
same | glycan array binding signal (z-score) | [8] | 0.811
same | glycan array binding signal (z-score) | [9] | -0.421
